Measurements: the supplement of paper PMC12872613
Where a name gives a salt, the structure may show the parent alone. Some of the results follow. No stated cut-off is given here; in the data, active = 0.7 or more and inactive = the rest. Single values are uncertain, as repeats are few or missing.

Test system: MiaPaCa-2 CLSA-25
Assay: cell death relative to DMSO vehicle (fraction); higher = more cytotoxic
Details: 5 µM; treatment time 48 h; medium cystine 25 µM

`O=C(NCCN1CCOCC1)c1ccc(Cl)cc1` [Moclobemide] was tested, and the cell death was inactive: 0.119.
For `O=C(O)CSc1nnc(Br)n1-c1ccc(C2CC2)c2ccccc12` [Lesinurad], the cell death was inactive: 0.607.
For `CC1(C)CCC(C)(C)c2cc(NC(=O)c3ccc(C(=O)O)cc3)ccc21` [Tamibarotene], the cell death was inactive: 0.158.
With `CC(=O)OCC(=O)[C@@]12OC3(CCCC3)O[C@@H]1C[C@H]1[C@@H]3CCC4=CC(=O)C=C[C@]4(C)[C@@]3(F)[C@@H](O)C[C@@]12C` [Amcinonide] the cell death was inactive: 0.157.
For `O=C1CC(c2c[nH]c3ccc(F)cc23)C(=O)N1` (configuration not stated), the cell death was inactive: 0.137.
With `Cc1cc(F)c(C(=O)Nc2cccc(-c3nncn3C(C)C)n2)cc1-n1cnc(C2CC2)c1` [Selonsertib] the cell death was inactive: 0.602.
For `CNc1nc(-c2cccc(NC(=O)c3ccc(C(=O)OC)cc3)c2)c2cc(OC)c(OC)cc2n1` [Lotamilast], the cell death was active: 0.774.
`N#Cc1ccnc(N2C(=O)CC[C@H]2C(=O)N(c2cncc(F)c2)[C@H](C(=O)NC2CC(F)(F)C2)c2ccccc2Cl)c1` [Ivosidenib] was tested, and the cell death was inactive: 0.191.
In the case of `CCNC(=O)c1noc(-c2cc(Cl)c(O)cc2O)c1-c1ccc(OC)cc1`, the cell death is reported as inactive: 0.112.
For `COC(=O)C1=CO[C@@H](O)[C@@H]2C(CO)=CC[C@H]12` [Genipin], the cell death was inactive: 0.123.
With `CC(C)NC(=N)NC(=N)Nc1ccc(Cl)cc1` [Proguanil hydrochloride] the cell death was inactive: 0.474.
With `CN(CCOc1ccc(CC2SC(=O)NC2=O)cc1)c1ccccn1` (configuration not stated) [Rosiglitazone maleate] the cell death was inactive: 0.114.
